Results reported in patent US10450346B2, “Immunotherapy against several tumors of the blood, in particular chronic lymphoid leukemia (CLL)” (Immatics biotechnologies GmbH, priority 2014, dated 2019).

System: primary CLL samples (PBMC from CLL patients), HLA class I ligands
Assay: HLA class I ligandome analysis by LC-MS/MS (frequency of HLA restricted presentation)
Set-up: species or system human
Settings: for Number of positive CLLs: CLL patient HLA class I ligandomes (n = 30); for Number of positive CLLs (frequency [%]): source protein (LiTAA) representation in CLL patient HLA class I ligandomes (n = 30)

Row | Substance | Number of positive CLLs | Number of positive CLLs (frequency [%]) | HLA restricted presentation/representation on primary CLL (CLL versus HV PBMC ligandomes)
1 | 167 (LLDEGAKLLY; listed as Homo sapiens) [compound 167] | 2 |  | 
2 | 168 (SPADAHRNL; listed as Homo sapiens) [compound 168] | 1 |  | 
3 | 169 (AELERQAVL; listed as Homo sapiens) [compound 169] | 1 |  | 
4 | 170 (GRVPGPLSL; listed as Homo sapiens) [compound 170] | 1 |  | 
5 | 171 (SDLARLILL; listed as Homo sapiens) [compound 171] | 1 |  | 
6 | 172 (TPIREQHVL; listed as Homo sapiens) [compound 172] | 3 |  | 
7 | 173 (APRKGNTL; listed as Homo sapiens) [compound 173] | 1 |  | 
8 | 174 (EEEEALQKKF; listed as Homo sapiens) [compound 174] | 1 |  | 
9 | 175 (KENLVDGF; listed as Homo sapiens) [compound 175] | 2 |  | 
10 | 176 (VYKENLVDGF; listed as Homo sapiens) [compound 176] | 2 |  | 
11 | 177 (TLLVVVPKL; listed as Homo sapiens) [compound 177] | 6 |  | 
12 | 178 (HEIDRYTAI; listed as Homo sapiens) [compound 178] | 1 |  | 
13 | 179 (VFTLKPLEF; listed as Homo sapiens) [compound 179] | 3 |  | 
14 | 180 (YWVPRNAL; listed as Homo sapiens) [compound 180] | 2 |  | 
15 | 181 (IGVEHVVVY; listed as Homo sapiens) [compound 181] | 5 |  | 
16 | 182 (RDKPHVNV; listed as Homo sapiens) [compound 182] | 1 |  | 
17 | 183 (ADVLKVEVF; listed as Homo sapiens) [compound 183] | 2 |  | 
18 | 184 (IPVVHASI; listed as Homo sapiens) [compound 184] | 1 |  | 
19 | 185 (RDSLIDSLT; listed as Homo sapiens) [compound 185] | 1 |  | 
20 | 186 (TVADQVLVGSY; listed as Homo sapiens) [compound 186] | 2 |  | 
21 | 187 (AADTERLAL; listed as Homo sapiens) [compound 187] | 1 |  | 
22 | 188 (DMKAKVASL; listed as Homo sapiens) [compound 188] | 2 |  | 
23 | 189 (HVLEEVQQV; listed as Homo sapiens) [compound 189] | 2 |  | 
24 | 190 (KEAADTERL; listed as Homo sapiens) [compound 190] | 1 |  | 
25 | 191 (RISEVLQKL; listed as Homo sapiens) [compound 191] | 1 |  | 

Row | Substance | Number of positive CLLs | Number of positive CLLs (frequency [%]) | HLA restricted presentation/representation on primary CLL (CLL versus HV PBMC ligandomes)
26 | 192 (TEVRELVSL; listed as Homo sapiens) [compound 192] | 2 |  | 
27 | 193 (AIRSGEAAAK; listed as Homo sapiens) [compound 193] | 2 |  | 
28 | 194 (APNPAPKEL; listed as Homo sapiens) [compound 194] | 4 |  | 
29 | 195 (RQSLLTAI; listed as Homo sapiens) [compound 195] | 1 |  | 
30 | 196 (SPEQTLSPL; listed as Homo sapiens) [compound 196] | 1 |  | 
31 | 197 (TEHQVPSSV; listed as Homo sapiens) [compound 197] | 1 |  | 
32 | 198 (TTYKIVPPK; listed as Homo sapiens) [compound 198] | 1 |  | 
33 | 200 (DETMVIGNY; listed as Homo sapiens) [compound 200] | 1 |  | 
34 | 201 (RQYGSEGRFTF; listed as Homo sapiens) [compound 201] | 1 |  | 
35 | 202 (SPAPRTAL; listed as Homo sapiens) [compound 202] | 6 |  | 
36 | 203 (GPRPITQSEL; listed as Homo sapiens) [compound 203] | 6 |  | 
37 | 204 (KPEPVDKVA; listed as Homo sapiens) [compound 204] | 1 |  | 
38 | 205 (TPSSRPASL; listed as Homo sapiens) [compound 205] | 4 |  | 
39 | 206 (DETQVRSLY; listed as Homo sapiens) [compound 206] | 2 |  | 
40 | 207 (KEEETNSVATL; listed as Homo sapiens) [compound 207] | 1 |  | 
41 | 208 (LEQKVVELY; listed as Homo sapiens) [compound 208] | 2 |  | 
42 | 209 (NPISNAVLNEY; listed as Homo sapiens) [compound 209] | 1 |  | 
43 | 210 (SIKEKSSL; listed as Homo sapiens) [compound 210] | 1 |  | 
44 | 211 (TEITEISTPSL; listed as Homo sapiens) [compound 211] | 1 |  | 
45 | 212 (GRLNSVNNR; listed as Homo sapiens) [compound 212] | 1 |  | 
46 | 214 (TPRTNNIEL; listed as Homo sapiens) [compound 214] | 2 |  | 
47 | 215 (DAMKRVEEI; listed as Homo sapiens) [compound 215] | 3 |  | 
48 | 216 (DIKEVKQNI; listed as Homo sapiens) [compound 216] | 3 |  | 
49 | 217 (GPIYPGHGM; listed as Homo sapiens) [compound 217] | 1 |  | 
50 | 218 (GDYGRAFNL; listed as Homo sapiens) [compound 218] | 2 |  | 

Row | Substance | Number of positive CLLs | Number of positive CLLs (frequency [%]) | HLA restricted presentation/representation on primary CLL (CLL versus HV PBMC ligandomes)
51 | 219 (TRHKIVHTK; listed as Homo sapiens) [compound 219] | 2 |  | 
52 | 220 (RIHTGEKPYK; listed as Homo sapiens) [compound 220] | 1 |  | 
53 | 221 (KAFNWFSTL; listed as Homo sapiens) [compound 221] | 1 |  | 
54 | 222 (QSTQRSLAL; listed as Homo sapiens) [compound 222] | 2 |  | 
55 | 223 (RDLQMNQALRF; listed as Homo sapiens) [compound 223] | 1 |  | 
56 | 224 (RELESQLHVL; listed as Homo sapiens) [compound 224] | 2 |  | 
57 | 225 (SEAEKLTLV; listed as Homo sapiens) [compound 225] | 1 |  | 
58 | ATP synthase, H+ transporting, mitochondrial Fo complex, subunit C1 [ATP5G1] | 7 | 23.3% | 
59 | ATP-binding cassette, sub-family A (ABC1), member 6 [ABCA6] | 10 | 33.3% | 
60 | ATPase, H+ transporting, lysosomal 42 kDa, V1 subunit C1 [ATP6V1C1] | 6 | 20.0% | 
61 | B-cell linker [BLNK] | 7 | 23.3% | 
62 | BTB and CNC homology 1, basic leucine zipper transcription factor 2 [BACH2] | 8 | 26.7% | 
63 | Dmx-like 1 [DMXL1] | 10 | 33.3% | 
64 | RINEFSISSF (listed as Homo sapiens) [SEQ ID NO: 526] |  |  | CLL-exclusive representation
65 | Tu translation elongation factor, mitochondrial [TUFM] | 6 | 20.0% | 
66 | asunder spermatogenesis regulator | 6 | 20.0% | 
67 | cadherin, EGF LAG seven-pass G-type receptor 1 [CELSR1] | 11 | 36.7% | 
68 | dystrophin [DMD] | 7 | 23.3% | 
69 | eukaryotic translation initiation factor 6 [EIF6] | 6 | 20.0% | 
70 | negative elongation factor complex member E [NELFE] | 6 | 20.0% | 
71 | ribosomal L24 domain containing 1 [RSL24D1] | 6 | 20.0% | 
72 | tumor necrosis factor receptor superfamily, member 13C [TNFRSF13C] | 6 | 20.0% | 
73 | zinc finger protein 638 [ZNF638] | 7 | 23.3% | 
